Measurements taken from publication doi:10.64898/2025.12.30.696989.
These are yes or no findings as the source states them, for the method shown. In cells and extracts the contact can be indirect. Some entries that bind do so weakly or less than the wild type. Where a sequence is shown, tags or fusion partners need not be part of it.

T1: myc-Cnc1-YFP (wild-type yeast cyclin C) (S. cerevisiae) (UniProt P47821)
T1 sequence: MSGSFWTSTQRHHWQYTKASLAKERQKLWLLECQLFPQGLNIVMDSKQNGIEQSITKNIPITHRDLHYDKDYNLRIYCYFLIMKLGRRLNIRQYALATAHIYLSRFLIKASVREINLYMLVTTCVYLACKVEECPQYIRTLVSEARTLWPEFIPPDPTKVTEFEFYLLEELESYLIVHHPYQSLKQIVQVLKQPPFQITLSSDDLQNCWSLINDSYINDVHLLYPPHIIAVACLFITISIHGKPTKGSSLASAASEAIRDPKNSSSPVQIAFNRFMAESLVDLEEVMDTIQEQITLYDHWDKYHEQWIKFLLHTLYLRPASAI

T2: myc-Cnc1-YFP E169A (S. cerevisiae) (UniProt P47821)
T2 sequence: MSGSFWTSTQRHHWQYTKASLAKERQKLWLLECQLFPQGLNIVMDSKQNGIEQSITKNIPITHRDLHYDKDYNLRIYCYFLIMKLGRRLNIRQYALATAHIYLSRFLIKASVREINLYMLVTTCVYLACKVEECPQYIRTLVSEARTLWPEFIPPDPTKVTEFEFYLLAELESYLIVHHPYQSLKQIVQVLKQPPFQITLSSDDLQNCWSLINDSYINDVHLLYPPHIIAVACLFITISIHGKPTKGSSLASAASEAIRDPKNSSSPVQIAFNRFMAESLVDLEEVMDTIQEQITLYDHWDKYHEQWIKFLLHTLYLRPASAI

T3: myc-Cnc1-YFP K130A (S. cerevisiae) (UniProt P47821)
T3 sequence: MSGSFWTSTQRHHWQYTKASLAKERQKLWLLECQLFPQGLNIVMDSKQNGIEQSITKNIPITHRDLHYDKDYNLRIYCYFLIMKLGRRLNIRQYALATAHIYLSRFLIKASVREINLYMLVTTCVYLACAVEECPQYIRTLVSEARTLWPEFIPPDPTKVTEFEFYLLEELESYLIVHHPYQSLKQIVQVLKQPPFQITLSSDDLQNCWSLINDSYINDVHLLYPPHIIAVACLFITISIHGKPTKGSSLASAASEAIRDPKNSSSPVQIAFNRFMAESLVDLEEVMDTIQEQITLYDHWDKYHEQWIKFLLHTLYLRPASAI

T4: myc-Cnc1-YFP N213A (S. cerevisiae) (UniProt P47821)
T4 sequence: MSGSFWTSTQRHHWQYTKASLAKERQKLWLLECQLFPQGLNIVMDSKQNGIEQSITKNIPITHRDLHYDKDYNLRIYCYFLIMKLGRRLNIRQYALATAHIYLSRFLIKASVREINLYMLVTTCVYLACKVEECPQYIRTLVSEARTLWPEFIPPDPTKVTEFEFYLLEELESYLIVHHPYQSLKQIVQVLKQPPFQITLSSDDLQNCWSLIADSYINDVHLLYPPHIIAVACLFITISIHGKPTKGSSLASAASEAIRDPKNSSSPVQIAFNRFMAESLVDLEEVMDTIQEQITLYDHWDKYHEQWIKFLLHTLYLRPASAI

T5: myc-Cnc1-YFP R274A (S. cerevisiae) (UniProt P47821)
T5 sequence: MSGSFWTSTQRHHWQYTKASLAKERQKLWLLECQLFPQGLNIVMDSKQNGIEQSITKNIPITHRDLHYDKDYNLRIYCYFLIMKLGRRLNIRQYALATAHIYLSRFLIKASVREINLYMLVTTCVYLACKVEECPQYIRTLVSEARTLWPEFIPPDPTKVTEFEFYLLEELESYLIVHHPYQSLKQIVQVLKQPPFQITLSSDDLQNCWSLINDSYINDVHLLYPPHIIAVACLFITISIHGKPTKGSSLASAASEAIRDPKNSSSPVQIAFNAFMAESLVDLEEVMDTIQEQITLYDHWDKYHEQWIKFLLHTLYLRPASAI


What was measured:
Test in all cases: co-IP
[1] = target: T1, myc-Cnc1-YFP (wild-type yeast cyclin C) (S. cerevisiae)
[2] = target: T2, myc-Cnc1-YFP E169A (S. cerevisiae)
[3] = target: T3, myc-Cnc1-YFP K130A (S. cerevisiae)
[4] = target: T4, myc-Cnc1-YFP N213A (S. cerevisiae)
[5] = target: T5, myc-Cnc1-YFP R274A (S. cerevisiae)

| binding [1] | binding [2] | binding [3] | binding [4] | binding [5] | Binder |
| --- | --- | --- | --- | --- | --- |
| binds | binds | binds | – | – | HA epitope tagged CDK8 (Cdk8-HA), yeast (enzyme, UniProt P39073 1-555) MYNGKDRAQNSYQPMYQRPMQVQGQQQAQSFVGKKNTIGSVHGKAPMLMANNDVFTIGPYRARKDRMRVSVLEKYEVIGYIAAGTYGKVYKAKRQINSGTNSANGSSLNGTNAKIPQFDSTQPKSSSSMDMQANTNALRRNLLKDEGVTPGRIRTTREDVSPHYNSQKQTLIKKPLTVFYAIKKFKTEKDGVEQLHYTGISQSACREMALCRELHNKHLTTLVEIFLERKCVHMVYEYAEHDLLQIIHFHSHPEKRMIPPRMVRSIMWQLLDGVSYLHQNWVLHRDLKPANIMVTIDGCVKIGDLGLARKFHNMLQTLYTGDKVVVTIWYRAPELLLGARHYTPAVDLWSVGCIFAELIGLQPIFKGEEAKLDSKKTVPFQVNQLQRILEVLGTPDQKIWPYLEKYPEYDQITKFPKYRDNLATWYHSAGGRDKHALSLLYHLLNYDPIKRIDAFNALEHKYFTESDIPVSENVFEGLTYKYPARRIHTNDNDIMNLGSRTKNNTQASGITAGAAANALGGLGVNRRILAAAAAAAAAVSGNNASDEPSRKKNRR |
| binds | binds | binds | binds | binds | Dnm1-myc (enzyme, UniProt P54861 1-757) MASLEDLIPTVNKLQDVMYDSGIDTLDLPILAVVGSQSSGKSSILETLVGRDFLPRGTGIVTRRPLVLQLNNISPNSPLIEEDDNSVNPHDEVTKISGFEAGTKPLEYRGKERNHADEWGEFLHIPGKRFYDFDDIKREIENETARIAGKDKGISKIPINLKVFSPHVLNLTLVDLPGITKVPIGEQPPDIEKQIKNLILDYIATPNCLILAVSPANVDLVNSESLKLAREVDPQGKRTIGVITKLDLMDSGTNALDILSGKMYPLKLGFVGVVNRSQQDIQLNKTVEESLDKEEDYFRKHPVYRTISTKCGTRYLAKLLNQTLLSHIRDKLPDIKTKLNTLISQTEQELARYGGVGATTNESRASLVLQLMNKFSTNFISSIDGTSSDINTKELCGGARIYYIYNNVFGNSLKSIDPTSNLSVLDVRTAIRNSTGPRPTLFVPELAFDLLVKPQIKLLLEPSQRCVELVYEELMKICHKCGSAELARYPKLKSMLIEVISELLRERLQPTRSYVESLIDIHRAYINTNHPNFLSATEAMDDIMKTRRKRNQELLKSKLSQQENGQTNGINGTSSISSNIDQDSAKNSDYDDDGIDAESKQTKDKFLNYFFGKDKKGQPVFDASDKKRSIAGDGNIEDFRNLQISDFSLGDIDDLENAEPPLTEREELECELIKRLIVSYFDIIREMIEDQVPKAVMCLLVNYCKDSVQNRLVTKLYKETLFEELLVEDQTLAQDRELCVKSLGVYKKAATLISNIL |
